No constants are given. Whether binding was seen depends on the method and setting. In cells and extracts the contact can be indirect. Some binding calls cover weakened binding; strength is not graded here.
Molecular target: mNG-SPRY2 (full length) (human) (UniProt O43597)
Experiment: FRET or BRET

Protein sequences, listed by entry. Tags and fused reporters are not part of them.
UniProt O43597: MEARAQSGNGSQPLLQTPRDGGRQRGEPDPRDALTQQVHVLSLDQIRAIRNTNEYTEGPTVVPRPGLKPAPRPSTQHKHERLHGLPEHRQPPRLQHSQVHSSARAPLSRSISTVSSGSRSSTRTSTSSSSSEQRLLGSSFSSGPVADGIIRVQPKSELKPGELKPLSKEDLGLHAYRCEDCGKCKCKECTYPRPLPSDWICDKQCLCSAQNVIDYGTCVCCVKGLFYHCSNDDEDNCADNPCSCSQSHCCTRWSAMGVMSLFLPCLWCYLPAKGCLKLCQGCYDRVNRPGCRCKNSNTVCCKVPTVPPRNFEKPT

binding: binds
Substance: mNG-SPRY2 (full length) (from UniProt O43597 1-315)
